These are yes or no findings as the source states them, for the method shown. In cells and extracts the contact can be indirect. Some binding calls cover weakened binding; strength is not graded here.

By UniProt entry, the sequences of proteins in these tests, tags left out.
UniProt Q3U1J4: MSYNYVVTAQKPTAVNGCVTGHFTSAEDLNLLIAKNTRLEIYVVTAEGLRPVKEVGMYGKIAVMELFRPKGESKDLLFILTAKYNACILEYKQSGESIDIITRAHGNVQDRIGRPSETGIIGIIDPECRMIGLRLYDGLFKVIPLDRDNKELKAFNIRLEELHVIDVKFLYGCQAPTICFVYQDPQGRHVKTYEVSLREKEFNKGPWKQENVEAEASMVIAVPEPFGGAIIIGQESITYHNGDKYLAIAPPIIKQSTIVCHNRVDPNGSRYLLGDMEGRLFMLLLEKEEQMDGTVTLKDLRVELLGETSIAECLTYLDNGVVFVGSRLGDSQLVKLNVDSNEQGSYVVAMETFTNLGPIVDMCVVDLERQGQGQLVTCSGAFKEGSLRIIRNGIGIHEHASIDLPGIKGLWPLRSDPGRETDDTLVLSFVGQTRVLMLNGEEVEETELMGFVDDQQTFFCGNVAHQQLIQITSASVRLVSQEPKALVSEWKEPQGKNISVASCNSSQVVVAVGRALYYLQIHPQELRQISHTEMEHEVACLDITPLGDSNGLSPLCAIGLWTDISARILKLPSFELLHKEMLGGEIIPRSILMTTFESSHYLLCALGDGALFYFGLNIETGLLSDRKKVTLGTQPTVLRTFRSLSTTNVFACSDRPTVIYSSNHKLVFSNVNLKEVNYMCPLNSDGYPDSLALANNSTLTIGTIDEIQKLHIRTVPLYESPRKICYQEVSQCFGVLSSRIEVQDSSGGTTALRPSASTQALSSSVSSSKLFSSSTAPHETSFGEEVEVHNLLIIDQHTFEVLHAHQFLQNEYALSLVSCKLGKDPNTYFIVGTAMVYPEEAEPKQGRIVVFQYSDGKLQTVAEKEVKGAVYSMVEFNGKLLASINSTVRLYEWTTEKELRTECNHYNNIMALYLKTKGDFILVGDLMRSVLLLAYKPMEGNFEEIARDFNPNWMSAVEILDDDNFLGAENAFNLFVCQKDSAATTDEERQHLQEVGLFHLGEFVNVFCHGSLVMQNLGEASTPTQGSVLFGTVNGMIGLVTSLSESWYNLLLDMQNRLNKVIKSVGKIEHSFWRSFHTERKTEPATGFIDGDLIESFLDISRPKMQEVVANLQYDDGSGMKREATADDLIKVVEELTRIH
UniProt O89090: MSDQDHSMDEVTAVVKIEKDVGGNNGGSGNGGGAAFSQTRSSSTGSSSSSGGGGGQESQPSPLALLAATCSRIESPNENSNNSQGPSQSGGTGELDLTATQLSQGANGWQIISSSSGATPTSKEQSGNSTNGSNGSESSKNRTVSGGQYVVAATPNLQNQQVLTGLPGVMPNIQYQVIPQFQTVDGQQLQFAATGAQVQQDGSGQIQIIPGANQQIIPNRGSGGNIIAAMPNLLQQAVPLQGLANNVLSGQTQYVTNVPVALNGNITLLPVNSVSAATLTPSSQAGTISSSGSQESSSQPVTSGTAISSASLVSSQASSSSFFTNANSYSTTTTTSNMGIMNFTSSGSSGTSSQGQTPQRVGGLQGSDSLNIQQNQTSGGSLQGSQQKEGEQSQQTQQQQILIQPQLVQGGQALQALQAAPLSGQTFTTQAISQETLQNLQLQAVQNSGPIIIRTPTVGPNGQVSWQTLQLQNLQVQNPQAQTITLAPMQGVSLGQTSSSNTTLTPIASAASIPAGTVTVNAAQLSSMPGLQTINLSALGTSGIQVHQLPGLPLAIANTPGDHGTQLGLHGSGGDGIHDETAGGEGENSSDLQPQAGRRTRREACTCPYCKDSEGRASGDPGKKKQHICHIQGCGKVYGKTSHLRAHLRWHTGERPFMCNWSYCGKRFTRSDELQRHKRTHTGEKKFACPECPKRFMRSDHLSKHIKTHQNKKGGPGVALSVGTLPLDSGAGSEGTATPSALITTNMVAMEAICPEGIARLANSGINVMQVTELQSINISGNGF
UniProt Q8N7N5: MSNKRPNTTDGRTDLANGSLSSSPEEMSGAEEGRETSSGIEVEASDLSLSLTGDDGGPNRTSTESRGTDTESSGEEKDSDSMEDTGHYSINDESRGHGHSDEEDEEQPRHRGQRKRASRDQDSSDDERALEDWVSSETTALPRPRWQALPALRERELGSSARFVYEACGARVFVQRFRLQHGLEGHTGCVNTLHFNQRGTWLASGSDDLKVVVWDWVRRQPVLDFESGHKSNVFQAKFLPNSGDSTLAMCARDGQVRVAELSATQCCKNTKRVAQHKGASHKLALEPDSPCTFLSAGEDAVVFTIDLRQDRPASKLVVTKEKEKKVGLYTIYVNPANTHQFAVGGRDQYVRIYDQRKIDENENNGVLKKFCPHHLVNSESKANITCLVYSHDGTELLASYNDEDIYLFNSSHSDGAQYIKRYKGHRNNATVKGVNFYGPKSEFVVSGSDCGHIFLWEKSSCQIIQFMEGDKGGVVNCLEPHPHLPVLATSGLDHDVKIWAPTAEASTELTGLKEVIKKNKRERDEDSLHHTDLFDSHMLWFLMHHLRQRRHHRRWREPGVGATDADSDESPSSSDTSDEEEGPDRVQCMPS
UniProt Q60974: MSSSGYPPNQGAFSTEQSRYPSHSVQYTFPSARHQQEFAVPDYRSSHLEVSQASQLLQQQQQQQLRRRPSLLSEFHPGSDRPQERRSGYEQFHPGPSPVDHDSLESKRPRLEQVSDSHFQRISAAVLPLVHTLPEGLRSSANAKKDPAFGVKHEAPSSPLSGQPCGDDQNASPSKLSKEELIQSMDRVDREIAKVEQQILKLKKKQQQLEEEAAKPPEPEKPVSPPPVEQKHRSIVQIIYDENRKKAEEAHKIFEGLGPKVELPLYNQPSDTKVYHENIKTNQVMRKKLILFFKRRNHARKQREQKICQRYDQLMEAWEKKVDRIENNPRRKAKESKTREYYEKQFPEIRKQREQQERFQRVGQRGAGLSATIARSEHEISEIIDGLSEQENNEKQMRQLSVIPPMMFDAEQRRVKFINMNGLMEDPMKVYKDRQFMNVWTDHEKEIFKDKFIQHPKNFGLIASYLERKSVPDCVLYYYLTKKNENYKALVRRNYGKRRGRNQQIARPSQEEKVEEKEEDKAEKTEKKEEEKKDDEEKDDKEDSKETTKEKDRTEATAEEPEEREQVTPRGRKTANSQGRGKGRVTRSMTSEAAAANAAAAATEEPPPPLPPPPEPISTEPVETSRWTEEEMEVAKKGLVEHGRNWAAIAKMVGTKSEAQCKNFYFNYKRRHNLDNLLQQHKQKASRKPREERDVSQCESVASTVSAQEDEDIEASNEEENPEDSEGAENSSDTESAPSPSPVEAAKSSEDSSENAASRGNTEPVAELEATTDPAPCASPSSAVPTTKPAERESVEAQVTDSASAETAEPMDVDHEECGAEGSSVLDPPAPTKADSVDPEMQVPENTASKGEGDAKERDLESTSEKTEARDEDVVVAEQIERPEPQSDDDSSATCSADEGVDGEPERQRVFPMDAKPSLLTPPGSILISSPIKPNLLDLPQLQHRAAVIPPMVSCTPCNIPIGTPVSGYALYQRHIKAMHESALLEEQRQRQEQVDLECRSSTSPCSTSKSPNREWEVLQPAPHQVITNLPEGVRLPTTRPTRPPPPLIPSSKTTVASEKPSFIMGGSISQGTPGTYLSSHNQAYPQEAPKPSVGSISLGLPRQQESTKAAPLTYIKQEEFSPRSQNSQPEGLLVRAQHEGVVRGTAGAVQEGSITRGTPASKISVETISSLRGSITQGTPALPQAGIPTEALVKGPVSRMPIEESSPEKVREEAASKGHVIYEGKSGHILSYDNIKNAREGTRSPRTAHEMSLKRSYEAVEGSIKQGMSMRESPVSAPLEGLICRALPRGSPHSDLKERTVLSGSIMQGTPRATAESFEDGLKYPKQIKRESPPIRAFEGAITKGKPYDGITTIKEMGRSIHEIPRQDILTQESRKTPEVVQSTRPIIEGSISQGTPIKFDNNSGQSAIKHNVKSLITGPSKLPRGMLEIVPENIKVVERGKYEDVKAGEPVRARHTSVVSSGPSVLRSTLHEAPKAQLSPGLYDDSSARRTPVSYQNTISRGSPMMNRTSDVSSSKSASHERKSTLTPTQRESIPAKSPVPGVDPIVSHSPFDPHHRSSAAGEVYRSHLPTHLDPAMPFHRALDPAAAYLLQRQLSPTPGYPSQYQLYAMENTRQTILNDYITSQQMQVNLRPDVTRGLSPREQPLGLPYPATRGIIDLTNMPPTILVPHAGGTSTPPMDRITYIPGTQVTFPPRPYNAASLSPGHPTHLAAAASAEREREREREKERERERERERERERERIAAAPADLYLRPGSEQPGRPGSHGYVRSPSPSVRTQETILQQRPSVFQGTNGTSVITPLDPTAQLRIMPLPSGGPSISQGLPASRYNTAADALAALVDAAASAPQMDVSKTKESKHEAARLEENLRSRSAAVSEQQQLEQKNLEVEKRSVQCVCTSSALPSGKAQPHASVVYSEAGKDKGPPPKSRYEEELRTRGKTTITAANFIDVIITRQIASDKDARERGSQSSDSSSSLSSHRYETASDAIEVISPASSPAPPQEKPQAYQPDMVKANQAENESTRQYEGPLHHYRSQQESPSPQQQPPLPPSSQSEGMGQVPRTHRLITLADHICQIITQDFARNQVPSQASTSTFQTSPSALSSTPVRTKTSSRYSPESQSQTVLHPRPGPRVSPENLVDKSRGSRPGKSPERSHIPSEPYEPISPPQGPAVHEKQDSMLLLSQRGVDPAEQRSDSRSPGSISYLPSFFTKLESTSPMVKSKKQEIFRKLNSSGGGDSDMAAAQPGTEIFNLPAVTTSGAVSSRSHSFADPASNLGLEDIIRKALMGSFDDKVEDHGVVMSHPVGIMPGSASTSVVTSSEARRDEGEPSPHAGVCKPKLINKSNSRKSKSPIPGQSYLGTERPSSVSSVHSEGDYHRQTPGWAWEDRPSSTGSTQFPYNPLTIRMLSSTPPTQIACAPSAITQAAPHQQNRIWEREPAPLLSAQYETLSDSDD

The source of these data is PMC7545708, “The small molecule PSSM0332 disassociates the CRL4A^DCAF8 E3 ligase complex to decrease the ubiquitination of NcoR1 and inhibit the inflammatory response in a mouse sepsis-induced myocardial dysfunction model” (International Journal of Biological Sciences, 2020).

Test [1] has as its target 2xFlag-DDB1 (pcDNA3-2×Flag-DDB1) (UniProt Q3U1J4). Put plainly: co-IP; RAW264.7 cells cotransfected with pcDNA3-2×Flag and pcDNA3-6×Myc plasmids, 48 h; lysate with anti-Flag agarose or anti-Myc agarose; 5 washes with RIPA buffer; immunoblot with anti-Flag and anti-Myc.
Test [2] addresses Flag-SP1 (UniProt O89090). The description is as above.
Test [3] concerns the target 2xFlag-DCAF8 (pcDNA3-2×Flag-DCAF8) (UniProt Q8N7N5). The test is described as above.
In test [4] the target is DDB1 (DNA damage-binding protein 1), endogenous in mouse heart tissue (mouse (endogenous in heart tissue)) (UniProt Q3U1J4). In words: co-IP; endogenous proteins; mixed heart tissues of three control or three SIMD mice lysed in RIPA buffer; IP with antibody-coupled protein A beads (anti-CUL4A, anti-DDB1, anti-DCAF8 or anti-SP1; IgG as control); immunoblot. In general terms: Immunoblotting shows a protein as a band on a membrane.

The target of test [5] is SP1 transcription factor, endogenous in mouse heart tissue (mouse (endogenous in heart tissue)) (UniProt O89090). The test is described as above.
Test [6] has as its target DCAF8 (DDB1 and CUL4 associated factor 8), endogenous in mouse heart tissue (mouse (endogenous in heart tissue)) (UniProt Q8N7N5). The description is as above.

On to “6xMyc-DCAF8 (pcDNA3-6×Myc-DCAF8) (from UniProt Q8N7N5 1-591)”, for which the binding entry in test [1] is listed as “binds”; in test [2] it was “no binding”. “6xMyc-NcoR1 (pcDNA3-6×Myc-NcoR1) (from UniProt Q60974 1-2453)”: the binding result in test [3] and in test [2] was “binds” throughout.

Consider “DCAF8 (DDB1 and CUL4 associated factor 8), endogenous in mouse heart tissue (from UniProt Q8N7N5 1-591)”, for which the binding result in test [4] is given as “binds”.

For the substance “NcoR1 (nuclear receptor corepressor 1), endogenous in mouse heart tissue (from UniProt Q60974 1-2453)”, the binding entry in test [5] and in test [6] was “binds” each time.
